The assay concerns the target T1, Tilapia piscidin (TP) 4 (Nile tilapia (Oreochromis niloticus)).
T1 sequence (peptide): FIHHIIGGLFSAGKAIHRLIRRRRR
Kind of assay: affinity purification with mass spectrometry; A549 cells treated with 10 μg/mL TP4 for 3 h; lysate (1 mg; 50 mM Tris-HCl pH 8.0, 150 mM NaCl, 1% Igepal CA-630) precipitated with rabbit anti-TP4 antibody and magnetic beads; major band of about 55 kDa excised, in-gel tryptic digestion, LC-MS/MS, Mascot search; only the target purified.

Protein sequences, listed by entry. Tags and fused reporters are not part of them.
UniProt Q9BQE3: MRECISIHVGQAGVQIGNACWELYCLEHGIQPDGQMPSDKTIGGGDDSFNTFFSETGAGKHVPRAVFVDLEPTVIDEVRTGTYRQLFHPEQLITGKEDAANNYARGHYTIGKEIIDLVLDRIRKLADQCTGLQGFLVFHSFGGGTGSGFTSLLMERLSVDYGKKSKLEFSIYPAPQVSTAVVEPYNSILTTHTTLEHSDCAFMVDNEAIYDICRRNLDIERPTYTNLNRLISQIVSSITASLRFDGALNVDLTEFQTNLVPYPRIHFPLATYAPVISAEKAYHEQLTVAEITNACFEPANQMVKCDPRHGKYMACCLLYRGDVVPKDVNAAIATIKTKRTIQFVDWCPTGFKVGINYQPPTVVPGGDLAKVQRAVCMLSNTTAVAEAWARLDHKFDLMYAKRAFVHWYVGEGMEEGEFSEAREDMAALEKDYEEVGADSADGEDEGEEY

Results are given in words; binding and its absence hold for the method and conditions named. Binding seen in cells or lysates may run through a third protein. These calls come from enrichment with a bait or labelling near it, and not all partners need be listed.

As to α-Tubulin (from UniProt Q9BQE3 1-449), the binding result is on record as “binds”.

Source of the values: article PMC6315541, “Nile Tilapia Derived Antimicrobial Peptide TP4 Exerts Antineoplastic Activity Through Microtubule Disruption” (Marine Drugs, 2018).
